In paper PMC10449828, “Fanconi anemia associated protein 20 (FAAP20) plays an essential role in homology-directed repair of DNA double-strand breaks”:
No constants are given. Whether binding was seen depends on the method and setting. In cells and extracts the contact can be indirect. Some results given as binding are weak or reduced against the parent protein; the word gives no strength.

Sequences of proteins named here, by UniProt entry; tags and fusion partners are left off.
UniProt Q06609: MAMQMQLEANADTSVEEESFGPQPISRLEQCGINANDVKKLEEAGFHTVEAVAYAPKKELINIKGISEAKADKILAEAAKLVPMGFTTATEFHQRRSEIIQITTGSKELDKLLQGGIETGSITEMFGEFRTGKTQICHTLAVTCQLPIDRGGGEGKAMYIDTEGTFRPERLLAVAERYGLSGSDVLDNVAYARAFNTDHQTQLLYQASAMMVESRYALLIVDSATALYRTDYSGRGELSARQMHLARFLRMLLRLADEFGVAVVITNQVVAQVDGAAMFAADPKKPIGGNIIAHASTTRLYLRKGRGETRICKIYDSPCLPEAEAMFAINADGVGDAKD
UniProt Q12888: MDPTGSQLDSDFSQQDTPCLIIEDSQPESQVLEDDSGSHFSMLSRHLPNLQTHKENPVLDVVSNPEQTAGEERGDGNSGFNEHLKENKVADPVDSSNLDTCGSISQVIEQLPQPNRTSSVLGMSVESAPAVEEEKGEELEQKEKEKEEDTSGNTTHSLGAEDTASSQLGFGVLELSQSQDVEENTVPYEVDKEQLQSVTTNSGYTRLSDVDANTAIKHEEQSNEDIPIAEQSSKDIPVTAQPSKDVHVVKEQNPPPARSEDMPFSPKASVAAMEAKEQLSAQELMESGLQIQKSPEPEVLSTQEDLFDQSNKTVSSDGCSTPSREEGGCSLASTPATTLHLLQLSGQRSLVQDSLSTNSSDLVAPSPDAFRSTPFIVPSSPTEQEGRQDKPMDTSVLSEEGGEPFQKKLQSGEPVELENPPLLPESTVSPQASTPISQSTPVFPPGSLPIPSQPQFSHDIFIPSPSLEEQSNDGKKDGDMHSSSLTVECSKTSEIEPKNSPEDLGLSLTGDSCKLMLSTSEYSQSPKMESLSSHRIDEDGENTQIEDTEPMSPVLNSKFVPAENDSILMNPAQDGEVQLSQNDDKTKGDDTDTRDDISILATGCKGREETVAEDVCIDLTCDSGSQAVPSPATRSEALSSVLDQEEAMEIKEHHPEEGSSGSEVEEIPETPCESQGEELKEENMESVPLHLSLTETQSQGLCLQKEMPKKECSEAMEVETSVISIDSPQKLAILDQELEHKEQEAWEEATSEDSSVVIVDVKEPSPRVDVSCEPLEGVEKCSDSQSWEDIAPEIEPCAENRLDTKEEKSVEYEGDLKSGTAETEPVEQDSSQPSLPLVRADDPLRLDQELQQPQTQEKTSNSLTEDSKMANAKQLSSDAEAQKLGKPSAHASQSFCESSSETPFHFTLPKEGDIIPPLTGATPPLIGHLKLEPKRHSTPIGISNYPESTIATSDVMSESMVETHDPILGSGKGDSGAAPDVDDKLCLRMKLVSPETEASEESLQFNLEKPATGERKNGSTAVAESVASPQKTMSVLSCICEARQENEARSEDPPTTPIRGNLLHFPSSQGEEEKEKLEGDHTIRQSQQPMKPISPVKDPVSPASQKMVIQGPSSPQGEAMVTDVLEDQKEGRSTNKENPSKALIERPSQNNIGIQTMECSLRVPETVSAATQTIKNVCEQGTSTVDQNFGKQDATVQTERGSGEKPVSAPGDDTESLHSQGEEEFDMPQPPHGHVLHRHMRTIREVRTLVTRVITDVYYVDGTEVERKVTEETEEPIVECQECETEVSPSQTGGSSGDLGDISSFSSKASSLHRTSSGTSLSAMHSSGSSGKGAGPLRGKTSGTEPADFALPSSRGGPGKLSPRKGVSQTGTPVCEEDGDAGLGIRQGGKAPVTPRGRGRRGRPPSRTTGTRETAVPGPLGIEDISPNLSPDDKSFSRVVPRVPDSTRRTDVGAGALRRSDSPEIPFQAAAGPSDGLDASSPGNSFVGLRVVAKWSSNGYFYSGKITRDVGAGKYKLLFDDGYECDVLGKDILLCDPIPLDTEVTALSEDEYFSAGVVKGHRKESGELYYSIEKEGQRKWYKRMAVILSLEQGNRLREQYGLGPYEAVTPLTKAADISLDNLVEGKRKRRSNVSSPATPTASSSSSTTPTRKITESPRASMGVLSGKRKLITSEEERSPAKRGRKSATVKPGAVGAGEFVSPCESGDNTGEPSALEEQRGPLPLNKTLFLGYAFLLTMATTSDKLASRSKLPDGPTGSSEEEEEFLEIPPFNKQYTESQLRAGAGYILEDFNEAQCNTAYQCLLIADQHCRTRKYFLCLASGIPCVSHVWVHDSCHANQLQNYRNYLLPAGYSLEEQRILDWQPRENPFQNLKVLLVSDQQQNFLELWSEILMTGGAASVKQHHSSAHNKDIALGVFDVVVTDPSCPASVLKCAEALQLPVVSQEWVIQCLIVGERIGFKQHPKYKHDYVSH

B1: Fanconi anemia associated protein 20 (FAAP20) (protein, UniProt Q6NZ36 1-180)
chain: MEAARRPRLGLSRRRPRPAGGPSGGRPWFLLGGDERERLWAELLRTVSPELILDHEVPSLPAFPGQEPRCGPEPTEVFTVGPKTFSWTPFPPDLWGPGRSYRLLHGAGGHLESPARSLPQRPAPDPCRAPRVEQQPSVEGAAALRSCPMCQKEFAPRLTQLDVDSHLAQCLAESTEDVTW

Target: RAD51 (human (endogenous in HEK293t)) (UniProt Q06609)
Test: co-IP; anti-RAD51 IgG (rabbit IgG isotype control) on HEK293t whole-cell extracts 48 h after FAAP20 overexpression, 500 ug protein/sample, extracts treated with micrococcal nuclease 1 h, antibody overnight at 4 C, Protein A magnetic beads, Western blot

Row | Molecule | binding
1 | 53BP1 (from UniProt Q12888 1-1972) | no binding
2 | B1 | binds
